Consider 23 molecules from PubChem BioAssay AID330 (DTP/NCI, 2004).

Each structure is given as a SMILES string. The list shows only some results of the screen, not a fair sample: it gathers tests that were run many times, whatever their T/C, doses with no T/C, and many T/C values between a quarter and a half above the control. Further doses and runs are listed elsewhere. T/C: endpoint of the treated group in % of that of the vehicle group. Some entries give survivors of the animals treated and no T/C: the source files T/C as zero there, which appears to mark a toxic dose or a test without result, not a measured value. Some survivor counts are full or nearly so, which does not show that the dose was tolerated: the source hardly ever lists a survival T/C far under the control, and the zero likely stands for such cases as well. Survivors were counted at the toxicity check, usually on the fifth day, unless a day is given; later deaths do not show. Schedule codes are those of the source, taken here to give the interval after Q, in days (D) or hours (H), and the number of doses after X. Some entries hold several experiments; the results are listed from low to high. Where survival is the endpoint, this PubChem deposit counts one and a half times the control or more as active, and values a quarter to a half above the control carry no call in these data; other NCI protocols may use other cut-offs. Signs of the kind (2×) count equal records among those shown. Some T/C values carry the count of animals alive at the toxicity check (mostly the fifth day); where none is given, no animal had died by that day.

The subject of this assay is P388 leukemia ip, CD2F1 mice, survival T/C. The experiment in a line: NCI In Vivo Anticancer Drug Screen. Data for tumor model P388 Leukemia (intraperitoneal) in CD2F1 (CDF1) mice. The note with it: T/C endpoint: median survival time, higher T/C = longer survival.
Where [1] appears, read: dose: 100.0 mg/kg/injection, schedule: Q01DX009 (ip), vehicle: saline.
Setting [2] is: dose: 12.5 mg/kg/injection, schedule: Q01DX009 (ip), vehicle: saline.
Where [3] appears, read: dose: 25.0 mg/kg/injection, schedule: Q01DX009 (ip), vehicle: saline.
[4] abbreviates: dose: 50.0 mg/kg/injection, schedule: Q01DX009 (ip), vehicle: saline.
Where [5] appears, read: dose: 200.0 mg/kg/injection, schedule: Q01DX009 (ip), vehicle: saline.
Setting [6] is: dose: 400.0 mg/kg/injection, schedule: Q04DX002 (ip), vehicle: saline with Tween-80.
[7] abbreviates: dose: 400.0 mg/kg/injection, schedule: Q04DX003 (ip), vehicle: saline.

As for `CCC(C)CN1CCc2c3c(c(OC)c(OC)c2C1)CCC3` (stereo not given), the survivor count (dose: 400.0 mg/kg/injection, schedule: Q04DX002 (ip), vehicle: saline) is on record as 3 of 6.

As to `CC(C)(C)n1nnnc1N`, under “dose: 100.0 mg/kg/injection, schedule: Q01DX009 (ip), vehicle: Klucel (hydroxypropylcellulose) (HPC)”, the survivor count is listed as 6 of 6.

Take `CCOc1cc2c(OCc3ccccc3)cc3c4cc(OC)c(OC)cc4c[n+](C)c3c2cc1OC`: the survivor count runs as follows: (dose: 50.0 mg/kg/injection, schedule: Q01DX005 (ip), vehicle: saline with Tween-80) 0 of 6; (dose: 100.0 mg/kg/injection, schedule: Q01DX005 (ip), vehicle: saline with Tween-80) 0 of 6; (dose: 200.0 mg/kg/injection, schedule: Q01DX005 (ip), vehicle: saline with Tween-80) 0 of 6.

For `Cc1cc(C)c(N=Cc2cccs2)c(C)c1`, the survivor count under setting [1] was 6 of 6.

As for `O=C(Nc1cccc(Cl)c1Cl)OCCCc1ccncc1`, the survivor count (dose: 200.0 mg/kg/injection, schedule: Q01DX009 (ip), vehicle: saline with Tween-80) is 6 of 6.

As for `COc1cc2c(c(OC)c1OC)-c1ccc(SC)c(=O)cc1[C@@H](NC(=O)NCCCl)CC2`, the T/C was 137 % of control (dose: 2.66 mg/kg/injection, schedule: Q01DX009 (ip), vehicle: water); 126 % of control (dose: 2.7 mg/kg/injection, schedule: Q01DX009 (ip), vehicle: water); 126 % of control (dose: 3.0 mg/kg/injection, schedule: Q01DX009 (ip), vehicle: water); 128 and 138 % of control (dose: 4.0 mg/kg/injection, schedule: Q01DX009 (ip), vehicle: water); 126 and 141 % of control (dose: 6.0 mg/kg/injection, schedule: Q01DX009 (ip), vehicle: water); 142 and 145 % of control (dose: 9.0 mg/kg/injection, schedule: Q01DX009 (ip), vehicle: water). Further, where the note is “dose: 24.0 mg/kg/injection, schedule: Q01DX009 (ip), vehicle: water”, the survivor count is 6 of 6.

As for `CSc1ccc2c(c1)C(N1CCN(C)CC1)Cc1ccccc1S2` (stereo not given), the T/C reads like this: (dose: 6.25 mg/kg/injection, schedule: Q01DX009 (ip), vehicle: saline) 128 and 135 % of control [5 of 6 alive]; (dose: 25.0 mg/kg/injection, schedule: Q01DX009 (ip), vehicle: saline with Tween-80) 141 % of control. Further, the survivor count was 6 of 6 under setting [2]; 6 of 6 under setting [3]; 3 of 6 (dose: 50.0 mg/kg/injection, schedule: Q01DX009 (ip), vehicle: saline with Tween-80); 3 of 6 and 5 of 6 under setting [4]; 3 of 6 under setting [1]; 0 of 6 under setting [5].

With `c1ccc2nc(-c3cnc4ccccc4n3)cnc2c1`, under setting [6], the survivor count was 6 of 6.

`Nc1nc2[nH]c(=O)cnc2c(=O)[nH]1`: the survivor count is 6 of 6 (dose: 75.0 mg/kg/injection, schedule: Q01DX009 (ip), vehicle: saline) and 6 of 6 (dose: 150.0 mg/kg/injection, schedule: Q01DX009 (ip), vehicle: saline).

`Cc1nc(C)n2c(C)nnc2c1C`: the survivor count runs as follows: (dose: 100.0 mg/kg/injection, schedule: Q04DX003 (ip), vehicle: saline) 6 of 6; (dose: 200.0 mg/kg/injection, schedule: Q04DX003 (ip), vehicle: saline) 0 of 6; under setting [7], 0 of 6.

Regarding `CCN(CC)CCOCC(=O)Nc1c(C)cccc1Cl`, under setting [7], the survivor count is listed as 0 of 6.

Take `C[CH2][Sn][Cl]`: the survivor count was 0 of 6 under setting [4], 0 of 6 under setting [1] and 5 of 6 under setting [5].

For the molecule `CNC(=O)c1cccc2c(Nc3ccc(NS(C)(=O)=O)cc3OC)c3cccc(C)c3nc12`, under “dose: 1.5 mg/kg/injection, schedule: Q01DX005 (ip), vehicle: water”, the T/C was 148 % of control. Also, the survivor count runs as follows: (dose: 6.0 mg/kg/injection, schedule: Q01DX005 (ip), vehicle: water) 5 of 5; (dose: 12.0 mg/kg/injection, schedule: Q01DX005 (ip), vehicle: water) 5 of 5; (dose: 12.5 mg/kg/injection, schedule: Q01DX005 (ip), vehicle: water) 5 of 5; (dose: 24.0 mg/kg/injection, schedule: Q01DX005 (ip), vehicle: water) 3 of 5; (dose: 25.0 mg/kg/injection, schedule: Q01DX005 (ip), vehicle: water) 5 of 5; (dose: 25.0 mg/kg/injection, schedule: Q01DX005 (oral), vehicle: water) 6 of 6. The survivor count (dose: 50.0 mg/kg/injection, schedule: Q01DX005 (ip), vehicle: water) is given as 5 of 5; the survivor count (dose: 50.0 mg/kg/injection, schedule: Q01DX005 (oral), vehicle: water) is on record as 6 of 6; the survivor count (dose: 100.0 mg/kg/injection, schedule: Q01DX005 (ip), vehicle: water) is 5 of 5; the survivor count (dose: 100.0 mg/kg/injection, schedule: Q01DX005 (oral), vehicle: water) is on record as 6 of 6; the survivor count (dose: 200.0 mg/kg/injection, schedule: Q01DX005 (ip), vehicle: water) is listed as 1 of 5; the survivor count (dose: 200.0 mg/kg/injection, schedule: Q01DX005 (oral), vehicle: water) is reported as 6 of 6.

As for `O=[N+]([O-])c1ccc(Cl)cc1C(Nc1nncs1)Nc1nncs1`, the T/C (dose: 240.0 mg/kg/injection, schedule: Q01DX005 (ip), vehicle: Klucel (hydroxypropylcellulose) (HPC)) was 126 % of control.

Consider `CCC(=O)NC(C)C(=O)O` (stereo not given), for which the survivor count under setting [4] is given as 4 of 6.

As to `C=C(C)C(=NC(C)(C)C)N1CCCCC1`, the survivor count (dose: 200.0 mg/kg/injection, schedule: Q01DX005 (ip), vehicle: Klucel (hydroxypropylcellulose) (HPC)) was 0 of 5.

In the case of `COc1cc2cc[n+]3c(C)c4ccc(OC)c(OC)c4cc3c2cc1OC` (tested in a mixture with another compound), the T/C was 141 % of control (2×) (dose: 10.0 mg/kg/injection, schedule: Q01DX009 (ip), vehicle: saline) and 145 % of control (dose: 20.0 mg/kg/injection, schedule: Q01DX009 (ip), vehicle: saline).

`COC(=O)c1ccccc1N1C(=O)C=CC1=O`: the survivor count (dose: 25.0 mg/kg/injection, schedule: Q04DX003 (ip), vehicle: saline with Tween-80) was 1 of 6.

Turning to `CCN=C1SC2C(=O)N(C)C(S1)C(=O)N2C`, the survivor count is reported as 0 of 6 (dose: 100.0 mg/kg/injection, schedule: Q04DX002 (ip), vehicle: saline with Tween-80); 0 of 6 (dose: 200.0 mg/kg/injection, schedule: Q04DX002 (ip), vehicle: saline with Tween-80); 0 of 6 under setting [6].

As to `[Cl][Pt+2][Cl].[NH-]C1CCC1.[NH2-]`, the T/C is, setting by setting: (dose: 0.38 mg/kg/injection, schedule: Q01DX005 (ip), vehicle: saline) 125 % of control; (dose: 0.75 mg/kg/injection, schedule: Q01DX005 (ip), vehicle: saline) 143 % of control; (dose: 1.5 mg/kg/injection, schedule: Q01DX005 (ip), vehicle: saline) 148 % of control. Besides, the survivor count runs as follows: (dose: 12.0 mg/kg/injection, schedule: Q01DX005 (ip), vehicle: saline) 5 of 6 and 6 of 6; (dose: 24.0 mg/kg/injection, schedule: Q01DX005 (ip), vehicle: saline) 1 of 6 and 6 of 6.

Consider `N#CCCN(CCC#N)Cc1c(O)c(O)c(CN(CCC#N)CCC#N)c2ccccc12`, for which the T/C (dose: 400.0 mg/kg/injection, schedule: Q01DX005 (ip), vehicle: saline with Tween-80) is 125 % of control.

Regarding `C=C1CC2(OC1=O)C(=O)N(C)c1ccc(I)cc12` (stereo not given), the T/C is 126 and 129 % of control under setting [2]; 139 % of control [5 of 6 alive] under setting [3]. The survivor count is 3 of 6 under setting [4]; 0 of 6 and 2 of 6 under setting [1].

For `COc1ccc(N=Nc2c(O)n(-c3ccc(Br)cc3)c(=S)n(-c3ccc(OC)cc3)c2=O)cc1`, where the note is “dose: 400.0 mg/kg/injection, schedule: Q04DX003 (ip), vehicle: saline with Tween-80”, the survivor count is recorded as 6 of 6.
